Measured values as given in article PMC7427095 (2020).
Results are given in words; binding and its absence hold for the method and conditions named. For part of these data: Binding seen in cells or lysates may run through a third protein. Some entries that bind do so weakly or less than the wild type. For part of these data: Sequences can lack the tags named with a protein.

Legend:
His6-HA4 (monobody HA4) [1] = test: fluorescence microscopy of coated agarose beads; His-tagged monobody on Ni-NTA agarose beads, 2 µM YFP-SH2 in Buffer A, equilibrated in the dark, imaged at room temperature from darkness into blue light (450 nm), images every 2 min for 8 min; both purified
His6-HA4 (monobody HA4) [2] = test: SEC; Superdex 200 16/300, Buffer A, 4 °C, 1 mL/min; about 1.2:1 binder to target; incubated and run in the dark or under blue light (450 nm); both purified
His6-YFP-SH2 (human) = test: pull-down; His6-YFP-SH2 held on Co2+ agarose (Talon) and washed; clarified E. coli lysates of the chimeras with FMN; 45 min at 4 °C under blue light (450 nm) or in the dark; Binding buffer (Tris 100 mM pH 8.0, NaCl 150 mM, glycerol 1%, 5 mM imidazole); imidazole elution, SDS-PAGE; only the target purified

Row | binding (His6-YFP-SH2 (human)) | Binder | binding (His6-HA4 (monobody HA4) [1]) | binding (His6-HA4 (monobody HA4) [2])
1 |  | YFP-SH2 (fusion of yellow fluorescent protein and the SH2 domain of human Abl kinase), purified (domain or fragment) SLEKHSWYHGPVSRNAAEYLLSSGINGSFLVRESESSPGQRSISLRYEGRVYHYRINTASDGKLYVSSESRFNTLAELVHHHSTVADGLITTLHYPAPKRNKPTVYGVSPNY | binds | binds
2 | binds | HA4-AsLOV2 (SS30 insertion) (designed binder) GSSVSSVPTKLEVVAATPTSLLISWDAPMSGLERIEKNFVITDPRLPDNPIIFASDSFLQLTEYSREEILGRNCRFLQGPETDRATVRKIRDAIDNQTEVTVQLINYTKSGKKFWNLFHLQPMRDQKGDVQYFIGVQLDGTEHVRDAAEREGVMLIKKTAENIDEAAGSSSVYYYRITYGETGGNSPVQEFTVPYSSSTATISGLSPGVDYTITVYAWGEDSAGYMFMYSPISINYRTC |  | 
